# PubChem BioAssay AID720505 – Drosophila RNAi Screening Center | 2013
# Test: 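Knock-downs that reduce calcium influx once internal stores are emptied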 (primary screen)
# Cell system: Drosophila S2R+ cells
# Reagent: long dsRNA against Drosophila genes
# Conditions: thapsigargin (2 µM) in calcium-free buffer to empty internal stores, then 2 mM calcium added back
# Measurement: 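Fluo-4 signal in 384-well plates read on a FLIPR after thapsigargin (2 µM, calcium-free) store depletion and 2 mM calcium add-back; unnormalised mean endpoint per well; screen run twice, selected wells retested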
# Scale: calcium signal and retest calcium signal: higher = more calcium entry after store depletion
# Hit rule: 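Knock-downs counted as hits when calcium entry dropped relative to STIM1 positive and Rho1 negative controls present on each plate; roughly 1500 genes called, with reductions of differing size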
# Calls: active = called as lowering calcium entry; inactive = not called
# The screen tested about 20,000 reagents; below is a random part of those that have a named target and a result. Over the whole deposit, about 2,100 (10%) are marked active. 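Raw plate signals without normalisation; calls rest on control-based scores that were not deposited; replicate 2 separates called from uncalled poorly.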 Names joined by + are all predicted targets of the reagent. Not given: the amount of reagent, the time to read-out.
gene,amplicon,"calcium signal, replicate 1","calcium signal, replicate 2","retest calcium signal, replicate 1","retest calcium signal, replicate 2",outcome
CG30116,DRSC05935,72.6,137,,,active
CG30116,DRSC06685,168,199,,,inactive
CG3036,DRSC00260,97.2,162,89.3,80.1,inactive
CG3036,DRSC00562,59.8,163,,,active
Antp,DRSC12490,113,137,,,inactive
Antp,DRSC23104,124,148,,,inactive
Dus2,DRSC19591,135,83.8,,,inactive
CG18577,DRSC15352,58.2,110,,,active
CG5267,DRSC06928,167,174,,,inactive
CG8135 + BBIP1,DRSC12739,,,,,active
CG8135 + BBIP1,DRSC16384,61.3,93.3,,,active
promL,DRSC08733,73.9,89,,,active
Ripalpha,DRSC02657,151,108,,,inactive
CG11127,DRSC06043,73.1,154,,,active
CG16837,DRSC04283,171,171,,,inactive
tey,DRSC11042,93.5,150,8674,142,inactive
tey,DRSC21709,143,74,,,inactive
ppk24,DRSC15093,235,121,,,inactive
CG17493,DRSC03798,141,94.4,,,inactive
CG33301,DRSC02778,78.9,92.1,,,active
PEK,DRSC12361,85.3,125,,,inactive
Top2,DRSC03459,122,108,,,inactive
CG12158,DRSC22933,71.9,102,,,active
Cka,DRSC03476,168,206,,,inactive
Cka,DRSC22858,88.4,125,,,inactive
CG9826,DRSC04570,115,172,,,inactive
CG15577,DRSC18065,235,117,,,inactive
CG15554,DRSC15092,190,196,,,inactive
Gr22f,DRSC00076,83.6,136,,,inactive
l(2)k10201,DRSC06439,119,173,,,inactive
l(2)k10201,DRSC07640,97.8,145,,,inactive
CG9485,DRSC04557,181,82.3,,,inactive
sau,DRSC00694,64.3,145,,,active
CG34050 (retired record),DRSC09067,,,,,active
CG10681,DRSC09777,123,79,,,inactive
CG10681,DRSC21484,153,106,,,inactive
IFT43,DRSC02892,70.3,154,,,inactive
pins,DRSC17043,73.7,81.9,,,active
GstD7,DRSC16688,127,88.4,102,72.9,inactive
pre-mod(mdg4)-W + pre-mod(mdg4)-Y + mod(mdg4) + 3 more,DRSC16328,82.5,81.6,,,inactive
Spt3,DRSC15465,224,73.6,,,inactive
CG13288,DRSC09962,87.2,81.7,,,inactive
Pur-alpha,DRSC17166,123,150,,,inactive
Jabba,DRSC06521,75.1,155,,,active
C1GalTA,DRSC03246,99.4,151,,,inactive
CG6845,DRSC08576,135,111,,,inactive
Rad60,DRSC15580,177,134,,,inactive
CG14292,DRSC14772,64.5,81.1,,,active
Cpr65Ax2 + Cpr65Ax1,DRSC10341,133,108,,,inactive
Cpr65Ax2 + Cpr65Ax1,DRSC10344,136,110,,,inactive
stil,DRSC07699,159,122,,,inactive
CG30334,DRSC05345,103,136,,,inactive
CG15258,DRSC02478,145,97.2,,,inactive
CG31624,DRSC02617,237,122,,,inactive
CG31473,DRSC15443,139,184,,,inactive
CG4607,DRSC18375,186,155,,,inactive

Just “calcium signal, replicate 2”, for 5 of the entries above:
CG3036 [DRSC00260] = 162
CG3036 [DRSC00562] = 163
Antp [DRSC12490] = 137
Antp [DRSC23104] = 148
Dus2 [DRSC19591] = 83.8
